No constants are given. Whether binding was seen depends on the method and setting. In cells and extracts the contact can be indirect. These calls come from enrichment with a bait or labelling near it, and not all partners need be listed.
B1: APOOOL (mouse) (protein, UniProt Q78IK4 28-265)
chain: EEEPKKQLVRPDQLPIYTAPPLHSKYVEEQPGNLQRGFASIRTTTVYYIGWCKSIYLFMKNGVMDTVQFGKDAYVYLKNPPQDFLPKMGVITASGLAGLLSARKGSRFKKIAYPLGLATLGATVCYPAQSVIIAKITGKKAYATSQQIFQAIKSLWTQKSENESLPEPKEESKEGRSDEIHASLPDLKHSVSLPKELASATVIKSESTSGTTQFIPDPKLMDHGQSHPDDKDMYSTRS
B2: SLC25A11 (mouse) (protein, UniProt Q9CR62 1-314)
chain: MAATASPGAGRMDGKPRTSPKSVKFLFGGLAGMGATVFVQPLDLVKNRMQLSGEGAKTREYKTSFHALTSILKTEGLKGIYTGLSAGLLRQATYTTTRLGIYTVLFERLTGADGTPPGFLLKALIGMTAGATGAFVGTPAEVALIRMTADGRLPADQRRGYKNVFNALVRIAREEGVPTLWRGCIPTMARAVVVNAAQLASYSQSKQFLLDSGYFSDNILCHFCASMISGLVTTAASMPVDIVKTRIQNMRMIDGKPEYKNGLDVLLKVVRYEGFFSLWKGFTPYYARLGPHTVLTFIFLEQMNKAYKRLFLSG
B3: CCDC47 (mouse) (protein, UniProt Q9D024 21-483)
chain: KFDDFEDEEDIVEYDDNDFAEFEDVMEDSVTESPQRVISTEDDEDEATVELEGQDESQEGDFEDADTQEGDTESEPYDDEEFEGYEDKPDTSSNKNKDPITIVDVPAHLQNSWESYYLEILMVTGLLAYIMNYIIGKNKNSRLAQAWFNSHRELLESNFTLVGDDGTNKEATSTGKLNQENEHIYNLWCSGRVCCEGMLIQLRFLKRQDLLNVLARMMRPVSDQVQIKVTMNDEDMDTYVFAVGTRKALLRLQKEMQDLSEFCSDKPKSGAKYGLPDSLAILSEMGEVTEGMMDTKMVHFLTHYADKIESVHFSDQFSGPKIMQEEGQPLKLPDTKRTLLFTFNVPGSGNTYPKDMESLLPLMNMVIYSIDKAKKFRLNREGKQKADKNRARVEENFLKLTHVQRQEAAQSRREEKKRAEKERIMNEEDPEKQRRLEEAALRREQKKLEKKQMKMKQIKVKAM
B4: CISD2 (mouse) (protein, UniProt Q9CQB5 1-135)
chain: MVLDSVARIVKVQLPAYLKQLPVPDSITGFARLTVSDWLRLLPFLGVLALLGYLAVRPFFPKKKQQKDSLINLKIQKENPKVVNEINIEDLCLTKAAYCRCWRSKTFPACDGSHNKHNELTGDNVGPLILKKKEV
B5: DNAJC11 (mouse) (protein, UniProt Q5U458 1-559)
chain: MATALSEEELDNEDYYSLLNVRREASSEELKAAYRRLCMLYHPDKHRDPELKSQAERLFNLVHQAYEVLSDPQTRAIYDIYGKRGLEMEGWEVVERKRTPAEIREEFERLQREREERRLQQRTNPKGTISVGVDATDLFDRYDEEYEDVSGSGFPQIEINKMHISQSIEAPLTATDTAILSGSLSTQNGNGGGSVNFALRRVTSAKGWGELEFGAGDLQGPLFGLKLFRNLTPRCFVTTNCALQFSSRGIRPGLTTVLARNLDKNTVGYLQWRWGIQSAMNTSIVRDTKTCHFTVALQLGIPHSFALISYQHKFQDDDQTRVKGSLKAGFFGTIVEYGAERKISRHSVLGAAVSIGVPQGVSLKVKLNRASQTYFFPIHLTDQLLPSAVFYATVGPLVVYLAVHRLIIRPYLRAQKEKELEKQRENTASDILQKKQEAEAAVRLMQESVRRIIEAEESRMGLIIVNAWYGKFVNDKSRKNEKVKVIDVTVPLQCLVKDSKLILTEASKAGLPGFYDPCVGEEKSLRVLYQFRGVLHQVMVPDSEALRIPKQSHRIDTDG
B6: HM13 (mouse) (protein, UniProt Q9D8V0 1-378)
chain: MDSAVSDPHNGSAEAGTPANGTTRPPSTPEGIALAYGSLLLMALLPIFFGALRSVRCARGKSSSDMPETITSRDAARFPIIASCTLLGLYLFFKIFSQEYINLLLSMYFFVLGILALSHTISPFMNKFFPANFPNRQYQLLFTQGSGENKEEIINYEFDTKDLVCLGLSSVVGVWYLLRKHWIANNLFGLAFSLNGVELLHLNNVSTGCILLGGLFIYDIFWVFGTNVMVTVAKSFEAPIKLVFPQDLLEKGLEADNFAMLGLGDIVIPGIFIALLLRFDISLKKNTHTYFYTSFAAYIFGLGLTIFIMHIFKHAQPALLYLVPACIGFPVLVALAKGEVAEMFSYEESNPKDPAAETESKEESTEASASKRLEKKEK
B7: heme oxygenase 2 (mouse) (protein, UniProt O70252 1-315)
chain: MSSEVETSEGVDESEKNSMAPEKENHTKMADLSELLKEGTKEAHDRAENTQFVKDFLKGNIKKELFKLATTALYFTYSALEEEMDRNKDHPAFAPLYFPTELHRKAALIKDMKYFFGENWEEQVKCSEAAQKYVDRIHYVGQNEPELLVAHAYTRYMGDLSGGQVLKKVAQRALKLPSTGEGTQFYLFEHVDNAQQFKQFYRARMNALDLNLKTKERIVEEANKAFEYNMQIFSELDQAGSMLARETLEDGLPVHDGKGDIRKCPFYAAQPDKGTLGGSNCPFQTTVAVLRKPSLQLILAASVALVAGLLAWYYM
B8: MBOAT7 (mouse) (protein, UniProt Q8CHK3 1-473)
chain: MTPEEWTYLMVLLISIPVGFLFKKAGPGLKRWGAAAVGLGLTLFTCGPHSLHSLITILGTWALIQAQPCSCHALALAWTFSYLLFFRALSLLGLPTPTPFTNAVQLLLTLKLVSLASEVQDLHLAQRKEIASGFHKEPTLGLLPEVPSLMETLSYSYCYVGIMTGPFFRYRTYLDWLEQPFPEAVPSLRPLLRRAWPAPLFGLLFLLSSHLFPLEAVREDAFYARPLPTRLFYMIPVFFAFRMRFYVAWIAAECGCIAAGFGAYPVAAKARAGGGPTLQCPPPSSPEIAASLEYDYETIRNIDCYGTDFCVRVRDGMRYWNMTVQWWLAQYIYKSAPFRSYVLRSAWTMLLSAYWHGLHPGYYLSFMTIPLCLAAEGYLESALRRHLSPGGQKAWDWVHWFLKMRAYDYMCMGFVLLSMADTLRYWASIYFWVHFLALACLGLGLVLGGGSPSKRKTPSQATSSQAKEKLREE
B9: MFRN2 (mouse) (protein, UniProt Q8R0Z5 1-364)
chain: MELEGRSAGGVAGGPAAGPGRSPGESALLDGWLQRGVGRGAGGGEAGAYQPPVRLDPESGPEYEALPAGATVTTHMVAGAVAGILEHCVMYPIDCVKTRMQSLQPDPAARYRNVLEALWRIMRTEGLWRPMRGLNVTATGAGPAHALYFACYEKLKKTLSDVIHPGGNSHIANGAAGCVATLLHDAAMNPAEVVKQRMQMYNSPYHRVTDCVRAVWQNEGAGAFYRSYTTQLTMNVPFQAIHFMTYEFLQEHFNPQRRYNPSSHVLCGACAGAVAAAATTPLDVCKTLLNTQESLALNSNITGHITGMASAFRTVYQVGGVTAYFRGVQARVIYQIPSTAIAWSVYEFFKYLITKRQEEWRAGK
B10: ABCB10 (mouse) (protein, UniProt Q9JI39 83-715)
chain: AGPRAAHPLFARLQGAAATGVRDLGNDSQRRPAATGRSEVWKLLGLVRPERGRLSAAVGFLAVSSVITMSAPFFLGRIIDVIYTNPSEGYGDSLTRLCAVLTCVFLCGAAANGIRVYLMQSSGQSIVNRLRTSLFSSILRQEVAFFDKTRTGELINRLSSDTALLGRSVTENLSDGLRAGAQASVGVGMMFFVSPSLATFVLSVVPPISVLAVIYGRYLRKLSKATQDSLAEATQLAEERIGNIRTIRAFGKEMTEVEKYTGRVDQLLQLAQKEALARAGFFGAAGLSGNLIVLSVLYKGGLLMGSAHMTVGELSSFLMYAFWVGLSIGGLSSFYSELMKGLGAGGRLWELLERQPRLPFNEGMVLDEKTFQGALEFRNVHFTYPARPEVSVFQDFSLSIPSGSVTALVGPSGSGKSTVVSLLLRLYDPNSGTVSLDGHDIRQLNPVWLRSKIGTVSQEPVLFSCSVAENIAYGADNLSSVTAQQVERAAEVANAAEFIRSFPQGFDTVVGEKGILLSGGQKQRIAIARALLKNPKILLLDEATSALDAENEHLVQEALDRLMEGRTVLIIAHRLSTIKNANFVAVLDHGKICEHGTHEELLLKPNGLYRKLMNKQSFLSYNGAEQFLEPARA
B11: progesterone receptor membrane protein 2 (mouse) (protein, UniProt Q80UU9 1-217)
chain: MAAGDGDVKLSTLGSGGESGGDGSPGGAGATAARSSWVAALLATGGEMLLNVALVALVLLGAYRLWVRWGRRGLCSGPGAGEESPAATLPRMKKRDFSLEQLRQYDGARTPRILLAVNGKVFDVTKGSKFYGPAGPYGIFAGRDASRGLATFCLDKDALRDEYDDLSDLNAVQMESVREWEMQFKEKYDYVGRLLKPGEEPSEYTDEEDTKDHSKQD
B12: SAMM50 (mouse) (protein, UniProt Q8BGH2 1-469)
chain: MGTVHARSLEPLPSSGTDFGALGEEAEFVEVEPEAKQEILENKDVVVQHVHFDGLGRTKDDIIICEIGEVFKAKNLIEVMRRSHEAREKLLRLGIFRQVDVLIDTCHGEDALPNGLDVTFEVTELRRLTGSYNTMVGNNEGSMVLGLKLPNLLGRAEKVTFQFSYGTKETSYGLSFFKPQPGNFERNFSVNLYKVTGQFPWSSLRETDRGVSAEYSFPLWKTSHTVKWEGVWRELGCLSRTASFAVRKESGHSLKSSLSHAMVIDSRNSSILPRRGALFKVNQELAGYTGGDVSFIKEDFELQLNKPLALDSVFSTSLWGGMLVPIGDKPSSIADRFYLGGPTSVRGFSMHSIGPQSEGDYLGGEAYWAGGLHLYTPLPFRPGQGGFGELFRTHFFLNAGNLCNLNYGEGPKAHIRKLAECIRWSYGAGVVLRLGNIARLELNYCIPMGVQGGDRICDGVQFGAGIRFL
B13: SEC63 (mouse) (protein, UniProt Q8VHE0 1-760)
chain: MAGQQFQYDDSGNTFFYFLTSFVGLIVIPATYYLWPRDQNAEQIRLKNIRKVYGRCMWYRLRLLKPQPNIIPTVKKIVLLAGWALFLFLAYKVSKTDREYQEYNPYEVLNLDPGATVAEIKKQYRLLSLKYHPDKGGDEVMFMRIAKAYAALTDEESRKNWEEFGNPDGPQATSFGIALPAWIVDQKNSILVLLVYGLAFMVILPVVVGSWWYRSIRYSGDQILIRTTQIYTYFVYKTRNMDMKRLIMVLAGASEFDPQYNKDSTSRPTDNILIPQLIREIGSINLKKNEPPLTCPYSLKARVLLLSHLARMKIPETLEEDQQFMLKKCPALLQEMVNVICQLIIMARSREEREFRAPTLASLENCMKLSQMAVQGLQQFKSPLLQLPHIEEDNLRRVSNHKKYKIKTIQDLVSLKESDRHSLLHFLEDEKYEEVMAVLGSFPYVTMDIKSQVLDDEDSNNITVGSLVTVLVKLTRQTMAEVFEKEQSICAAEEQPTEDGQSDANKIKAKGGWQQKNKGPKKMPKSKKKKPLKKKPTTVPLPQAKQQKQKQANGVVGSEAAIKEEEDDISDKGSDSEEEETNRDSQSEKEDGSDRESDREQDEKQSKDDEAEWQELQQSIQRKERALLETKSKITHPVYSLYFPEEKQEWWWLYIADRKEQTLISMPYHVCTLKDTEEVELKFPAPGKPGNYQYTVFLRSDSYMGLDQIKPLKLEVHEAKPVPENHPQWDTAIEGDEDQEDSEGFEDSFEEEEEEEEGGD

By UniProt entry, the sequences of proteins in these tests, tags left out. Residues count along the entry.
UniProt O00264: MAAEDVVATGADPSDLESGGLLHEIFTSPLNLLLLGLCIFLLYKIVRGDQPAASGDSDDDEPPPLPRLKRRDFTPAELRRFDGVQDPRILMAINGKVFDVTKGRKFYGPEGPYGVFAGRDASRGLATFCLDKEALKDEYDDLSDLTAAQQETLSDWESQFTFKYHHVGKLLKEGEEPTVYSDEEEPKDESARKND
UniProt O35379: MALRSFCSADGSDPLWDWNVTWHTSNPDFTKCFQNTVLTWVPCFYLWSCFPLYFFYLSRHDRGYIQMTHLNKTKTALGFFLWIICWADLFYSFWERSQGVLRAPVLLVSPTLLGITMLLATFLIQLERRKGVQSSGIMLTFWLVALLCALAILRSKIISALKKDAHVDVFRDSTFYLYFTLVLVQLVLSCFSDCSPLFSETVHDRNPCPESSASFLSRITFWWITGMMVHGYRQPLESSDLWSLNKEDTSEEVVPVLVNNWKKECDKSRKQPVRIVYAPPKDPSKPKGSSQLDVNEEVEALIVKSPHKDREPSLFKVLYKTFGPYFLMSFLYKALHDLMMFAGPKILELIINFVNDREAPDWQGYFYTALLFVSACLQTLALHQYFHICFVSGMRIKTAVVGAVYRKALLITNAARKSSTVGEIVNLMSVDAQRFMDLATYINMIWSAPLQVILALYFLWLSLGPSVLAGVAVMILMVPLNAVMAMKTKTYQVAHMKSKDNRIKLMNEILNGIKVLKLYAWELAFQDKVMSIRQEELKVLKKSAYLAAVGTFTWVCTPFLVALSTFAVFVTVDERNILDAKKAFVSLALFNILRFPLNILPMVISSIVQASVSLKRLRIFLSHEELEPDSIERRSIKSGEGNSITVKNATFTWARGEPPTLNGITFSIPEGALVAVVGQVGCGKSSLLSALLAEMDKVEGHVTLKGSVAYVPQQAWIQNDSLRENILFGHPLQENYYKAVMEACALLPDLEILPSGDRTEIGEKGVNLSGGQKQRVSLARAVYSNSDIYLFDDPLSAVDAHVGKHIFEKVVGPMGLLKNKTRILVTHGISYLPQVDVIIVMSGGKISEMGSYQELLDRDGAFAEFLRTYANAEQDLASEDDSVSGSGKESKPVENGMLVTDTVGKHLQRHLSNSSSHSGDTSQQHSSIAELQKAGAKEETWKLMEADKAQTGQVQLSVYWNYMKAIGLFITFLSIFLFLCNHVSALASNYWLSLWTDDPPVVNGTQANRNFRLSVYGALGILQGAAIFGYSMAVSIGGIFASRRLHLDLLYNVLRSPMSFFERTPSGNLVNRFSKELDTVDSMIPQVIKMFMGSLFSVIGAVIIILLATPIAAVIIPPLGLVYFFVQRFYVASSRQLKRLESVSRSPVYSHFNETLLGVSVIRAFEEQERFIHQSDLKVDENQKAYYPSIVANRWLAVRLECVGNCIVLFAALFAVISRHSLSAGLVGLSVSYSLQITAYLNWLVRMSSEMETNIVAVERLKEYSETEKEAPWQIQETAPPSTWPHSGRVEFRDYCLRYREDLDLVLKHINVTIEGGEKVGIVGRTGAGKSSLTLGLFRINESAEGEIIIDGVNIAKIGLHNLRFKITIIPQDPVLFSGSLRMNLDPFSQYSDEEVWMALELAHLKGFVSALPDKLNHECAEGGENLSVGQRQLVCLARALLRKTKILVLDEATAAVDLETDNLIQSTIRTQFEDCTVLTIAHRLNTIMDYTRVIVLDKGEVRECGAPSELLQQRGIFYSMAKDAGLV
UniProt P61620: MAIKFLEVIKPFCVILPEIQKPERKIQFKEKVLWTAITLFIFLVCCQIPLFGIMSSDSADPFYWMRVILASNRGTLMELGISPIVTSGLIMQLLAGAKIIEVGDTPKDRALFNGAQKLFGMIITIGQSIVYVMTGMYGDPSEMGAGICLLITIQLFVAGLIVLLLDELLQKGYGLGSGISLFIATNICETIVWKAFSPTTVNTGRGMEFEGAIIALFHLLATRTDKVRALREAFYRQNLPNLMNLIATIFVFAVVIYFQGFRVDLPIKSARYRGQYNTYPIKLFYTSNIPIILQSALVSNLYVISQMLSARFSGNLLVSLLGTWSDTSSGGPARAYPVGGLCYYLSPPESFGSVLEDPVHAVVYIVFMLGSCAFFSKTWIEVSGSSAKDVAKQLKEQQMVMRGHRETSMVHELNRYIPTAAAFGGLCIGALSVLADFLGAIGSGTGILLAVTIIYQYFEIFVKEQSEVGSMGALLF
UniProt Q9D5T0: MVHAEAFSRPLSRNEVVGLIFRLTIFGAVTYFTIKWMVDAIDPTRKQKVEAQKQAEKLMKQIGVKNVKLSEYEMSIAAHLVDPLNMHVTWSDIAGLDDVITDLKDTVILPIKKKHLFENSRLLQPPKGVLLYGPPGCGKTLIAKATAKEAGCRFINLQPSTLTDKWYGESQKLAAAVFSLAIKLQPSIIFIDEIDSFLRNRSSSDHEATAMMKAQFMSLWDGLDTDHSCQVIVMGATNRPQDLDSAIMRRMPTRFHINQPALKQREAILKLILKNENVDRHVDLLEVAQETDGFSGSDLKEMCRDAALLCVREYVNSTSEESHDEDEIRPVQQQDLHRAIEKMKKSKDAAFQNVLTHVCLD
UniProt O55143: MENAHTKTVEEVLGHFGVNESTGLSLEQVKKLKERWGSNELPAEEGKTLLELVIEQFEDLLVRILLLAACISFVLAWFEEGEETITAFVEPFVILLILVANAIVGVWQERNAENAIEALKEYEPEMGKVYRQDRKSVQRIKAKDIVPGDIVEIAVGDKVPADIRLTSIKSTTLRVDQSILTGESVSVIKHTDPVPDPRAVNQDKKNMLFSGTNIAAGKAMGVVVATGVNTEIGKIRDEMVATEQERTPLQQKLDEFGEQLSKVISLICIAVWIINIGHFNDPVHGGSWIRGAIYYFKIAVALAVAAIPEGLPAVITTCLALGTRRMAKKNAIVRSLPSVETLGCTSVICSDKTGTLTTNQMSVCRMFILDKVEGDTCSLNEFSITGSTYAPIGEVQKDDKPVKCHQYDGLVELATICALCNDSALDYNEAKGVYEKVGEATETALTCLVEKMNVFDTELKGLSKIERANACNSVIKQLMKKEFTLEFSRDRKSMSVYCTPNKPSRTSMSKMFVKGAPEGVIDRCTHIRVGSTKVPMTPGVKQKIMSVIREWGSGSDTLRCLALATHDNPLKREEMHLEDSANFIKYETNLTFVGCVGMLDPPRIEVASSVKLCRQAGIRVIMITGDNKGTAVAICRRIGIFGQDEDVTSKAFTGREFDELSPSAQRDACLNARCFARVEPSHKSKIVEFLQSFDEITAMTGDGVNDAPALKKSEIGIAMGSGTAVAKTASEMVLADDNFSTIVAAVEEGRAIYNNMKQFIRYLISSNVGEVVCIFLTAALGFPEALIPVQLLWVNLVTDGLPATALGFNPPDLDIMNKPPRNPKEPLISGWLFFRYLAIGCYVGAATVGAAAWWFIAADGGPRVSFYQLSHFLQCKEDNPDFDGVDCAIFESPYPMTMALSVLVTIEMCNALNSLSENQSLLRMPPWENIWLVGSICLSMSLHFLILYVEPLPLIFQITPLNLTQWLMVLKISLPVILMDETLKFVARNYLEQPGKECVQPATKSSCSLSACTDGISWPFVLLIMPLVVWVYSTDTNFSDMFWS
UniProt Q61102, residues 23-752: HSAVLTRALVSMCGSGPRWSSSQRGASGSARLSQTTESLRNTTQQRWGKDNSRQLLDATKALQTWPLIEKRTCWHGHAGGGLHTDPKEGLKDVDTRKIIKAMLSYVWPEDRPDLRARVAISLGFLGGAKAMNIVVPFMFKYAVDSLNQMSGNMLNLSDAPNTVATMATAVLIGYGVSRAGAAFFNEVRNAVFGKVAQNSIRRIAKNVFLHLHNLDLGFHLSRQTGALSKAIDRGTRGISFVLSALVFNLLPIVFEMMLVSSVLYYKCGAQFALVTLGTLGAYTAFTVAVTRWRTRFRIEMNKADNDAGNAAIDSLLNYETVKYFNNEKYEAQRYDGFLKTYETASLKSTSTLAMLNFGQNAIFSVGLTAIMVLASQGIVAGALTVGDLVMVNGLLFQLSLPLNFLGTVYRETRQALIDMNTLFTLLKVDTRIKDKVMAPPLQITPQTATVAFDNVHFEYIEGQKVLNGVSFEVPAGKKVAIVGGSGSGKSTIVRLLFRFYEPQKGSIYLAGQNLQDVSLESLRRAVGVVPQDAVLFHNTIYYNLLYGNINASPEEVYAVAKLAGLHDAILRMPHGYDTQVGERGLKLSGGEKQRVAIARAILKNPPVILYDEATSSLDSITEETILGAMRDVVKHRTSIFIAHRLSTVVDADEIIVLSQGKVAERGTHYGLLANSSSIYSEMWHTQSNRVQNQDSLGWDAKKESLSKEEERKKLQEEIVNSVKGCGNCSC

The molecules below were run against FLAG-tagged PGRMC1 (human progesterone receptor membrane component 1) (human) (UniProt O00264) (assay: affinity purification with mass spectrometry; FLAG-PGRMC1 (human) stably expressed in murine MEL cells as bait; isolated mitochondria lysed, affinity purification by FLAG; prey filtered with CRAPome, fold-change threshold 1.5; empty-vector cells as control).

binding, binds:
ABCC1 (mouse) (from UniProt O35379 1-1528), SEC61A1 (mouse) (from UniProt P61620 1-476), ATAD1 (mouse) (from UniProt Q9D5T0 1-361), ATP2A2 (mouse) (from UniProt O55143 1-1044), ABCB7 (mouse) (from UniProt Q61102 23-752), B1, B2, B3, B4, B5, B6, B7, B8, B9, B10, B11, B12, B13

Source: article PMC12973532
